Test results as given in paper PMC5707103.
Results are given in words; binding and its absence hold for the method and conditions named. Binding seen in cells or lysates may run through a third protein. Binding can be weak; no strength is given.

Protein sequences, listed by entry. Tags and fused reporters are not part of them. Lines headed by an entry give the natural chain unless they say otherwise; changes in a name come on top.
UniProt P03126: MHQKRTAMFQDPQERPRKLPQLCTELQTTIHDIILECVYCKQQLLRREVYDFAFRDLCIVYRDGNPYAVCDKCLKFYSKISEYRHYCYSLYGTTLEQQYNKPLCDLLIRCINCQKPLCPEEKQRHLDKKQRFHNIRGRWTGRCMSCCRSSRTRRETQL
UniProt P01106: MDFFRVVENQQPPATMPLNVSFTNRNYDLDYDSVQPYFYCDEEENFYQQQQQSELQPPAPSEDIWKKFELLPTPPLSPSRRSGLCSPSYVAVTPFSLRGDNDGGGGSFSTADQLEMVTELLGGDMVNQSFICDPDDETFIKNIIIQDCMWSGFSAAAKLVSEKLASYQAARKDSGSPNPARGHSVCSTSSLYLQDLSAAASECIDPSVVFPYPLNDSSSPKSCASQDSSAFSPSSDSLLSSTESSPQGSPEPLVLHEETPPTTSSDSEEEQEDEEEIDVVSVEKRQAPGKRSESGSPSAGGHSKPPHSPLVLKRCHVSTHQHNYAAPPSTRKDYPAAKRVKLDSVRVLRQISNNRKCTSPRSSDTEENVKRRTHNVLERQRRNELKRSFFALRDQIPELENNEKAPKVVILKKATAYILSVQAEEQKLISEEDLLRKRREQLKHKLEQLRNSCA

Target: GST-E6 fusion protein (GST-16E6) (human papillomavirus type 16 (HPV16)) (UniProt P03126)
Experiment: pull-down; GST or GST-E6 fusion on Glutathione-Agarose beads; in vitro translated wt Myc or full-length based deletion mutants; blot with monoclonal Myc antibody 9E10; only the target purified

| Substance | binding |
| --- | --- |
| MycΔ370-409 (MycΔHLH) (from UniProt P01106) | binds |
| MycΔMBI (from UniProt P01106) | binds |
| MycΔMBI+II (from UniProt P01106) | binds |
| MycΔMBI+ΔHLH (from UniProt P01106) | binds |
| MycΔMBII (from UniProt P01106) | binds |
| MycΔMBII+ΔHLH (from UniProt P01106) | binds |
